The list shows a part of the results. Repeats are few or missing, and single values can be far off.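 The apoptosis fraction was the count of cleaved-PARP antibody-stained nuclei relative to all DNA-stained nuclei, imaged in 1,536-well plates. Screening doses were set so most cells survived, and baseline and induced cleaved-PARP levels vary greatly across cell lines.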
Test system: MeWo
Assay: cleaved PARP positive nuclei fraction relative to DMSO control; melanoma cells; higher = more apoptosis
Conditions: library dose: low library concentration; 72 h

SMILES	cleaved PARP positive nuclei fraction [%]
C[C@@H](N)c1ccc(C(=O)Nc2ccnc3[nH]ccc23)cc1 + Cc1cc([N+](=O)[O-])ccc1NS(=O)(=O)c1cc(Cl)ccc1Cl [FH535] (first compound 0.4 µM, partner dose 1 µM)	184
CS(=O)(=O)c1ccc(C(=O)Nc2ccc(Cl)c(-c3ccccn3)c2)c(Cl)c1 [vismodegib] + O=S(=O)(c1ccccc1)N(CC(F)(F)F)c1ccc(C(O)(C(F)(F)F)C(F)(F)F)cc1 [T0901317] (first compound 1 µM, partner dose 1.4 µM)	65.8
CCN(CC)CCNC(=O)c1c(C)[nH]c(/C=C2\C(=O)Nc3ccc(F)cc32)c1C [sunitinib] + COc1cc(N2CCC(N3CCN(C)CC3)CC2)ccc1Nc1ncc(Cl)c(Nc2ccccc2S(=O)(=O)C(C)C)n1 [NVP-TAE684] (first compound 0.4 µM, partner dose 0.08 µM)	124
CC1(C)CCC(c2ccc(Cl)cc2)=C(CN2CCN(c3ccc(C(=O)NS(=O)(=O)c4ccc(N[C@H](CCN5CCOCC5)CSc5ccccc5)c(S(=O)(=O)C(F)(F)F)c4)cc3)CC2)C1 + CC(C)CCN1c2nc(Nc3cc(F)c(O)c(F)c3)ncc2N(C)C(=O)C1C [BID1870] (first compound 0.4 µM, partner dose 0.2 µM)	207
C[C@@H](N)c1ccc(C(=O)Nc2ccnc3[nH]ccc23)cc1 + CN(NC(=O)CC(=O)NN(C)C(=S)c1ccccc1)C(=S)c1ccccc1 [STA4783] (first compound 0.4 µM, partner dose 0.006 µM)	475
NC1(c2ccc(-c3nc4ccn5c(=O)[nH]nc5c4cc3-c3ccccc3)cc2)CCC1 + COc1cc(N2CCC(N3CCN(C)CC3)CC2)ccc1Nc1ncc(Cl)c(Nc2ccccc2S(=O)(=O)C(C)C)n1 [NVP-TAE684] (first compound 0.4 µM, partner dose 0.08 µM)	43.9
NC(=O)c1ccc(N(C(N)=O)c2c(F)cccc2F)nc1-c1ccc(F)cc1F + CCCCCCCCCCCC1=C(O)C(=O)C=C(O)C1=O [Embelin] (first compound 0.4 µM, partner dose 1.2 µM)	42.4
CS(=O)(=O)c1ccc(C(=O)Nc2ccc(Cl)c(-c3ccccn3)c2)c(Cl)c1 [vismodegib] + NCC(=O)Nc1ccc(-n2nc(C(F)(F)F)cc2-c2ccc3c(ccc4ccccc43)c2)cc1 [OSU03012] (first compound 1 µM, partner dose 1 µM)	89.4
NC1(c2ccc(-c3nc4ccn5c(=O)[nH]nc5c4cc3-c3ccccc3)cc2)CCC1 + O=S(=O)(c1ccccc1)N(CC(F)(F)F)c1ccc(C(O)(C(F)(F)F)C(F)(F)F)cc1 [T0901317] (first compound 0.4 µM, partner dose 1.4 µM)	33
NC(=O)c1ccc(N(C(N)=O)c2c(F)cccc2F)nc1-c1ccc(F)cc1F + CC(C)(C)c1cnc(CSc2cnc(NC(=O)C3CCNCC3)s2)o1 [SNS-032] (first compound 0.4 µM, partner dose 0.01 µM)	20.6
NC(=O)c1ccc(N(C(N)=O)c2c(F)cccc2F)nc1-c1ccc(F)cc1F + CO[C@@H]1[C@H](N(C)C(=O)c2ccccc2)C[C@H]2O[C@]1(C)n1c3ccccc3c3c4c(c5c6ccccc6n2c5c31)C(=O)NC4 [Midostaurin] (first compound 0.4 µM, partner dose 0.08 µM)	145
Cn1cnc2c(F)c(Nc3ccc(Br)cc3Cl)c(C(=O)NOCCO)cc21 [selumetinib] + COc1cc2c(Oc3ccc4[nH]c(C)cc4c3F)ncnc2cc1OCCCN1CCCC1 [cediranib] (first compound 0.015 µM, partner dose 0.4 µM)	103
C[C@]1(O)C[C@@H](c2nc(-c3ccc4ccc(-c5ccccc5)nc4c3)c3c(N)nccn32)C1 + c1cc(-c2cnn3cc(-c4ccc(OCCN5CCCCC5)cc4)cnc23)ccn1 [Dorsomorphin] (first compound 0.4 µM, partner dose 0.4 µM)	51
CC1(C)CCC(c2ccc(Cl)cc2)=C(CN2CCN(c3ccc(C(=O)NS(=O)(=O)c4ccc(N[C@H](CCN5CCOCC5)CSc5ccccc5)c(S(=O)(=O)C(F)(F)F)c4)cc3)CC2)C1 + NCC(=O)Nc1ccc(-n2nc(C(F)(F)F)cc2-c2ccc3c(ccc4ccccc43)c2)cc1 [OSU03012] (first compound 0.4 µM, partner dose 1 µM)	1120
CN(c1ncccc1CNc1nc(Nc2ccc3c(c2)CC(=O)N3)ncc1C(F)(F)F)S(C)(=O)=O + O=C(O)c1ccc(-c2c[nH]c3ncc(-c4ccccc4)cc23)cc1C1CCCC1 [GSK650394] (first compound 0.08 µM, partner dose 0.16 µM)	53.5
NC(=O)c1ccc(N(C(N)=O)c2c(F)cccc2F)nc1-c1ccc(F)cc1F + COc1ccc(-c2ccc3c(N4CCOCC4)nc(N4C[C@@H](C)O[C@@H](C)C4)nc3n2)cc1CO [KU0063794] (first compound 0.4 µM, partner dose 0.02 µM)	48.2
NC1(c2ccc(-c3nc4ccn5c(=O)[nH]nc5c4cc3-c3ccccc3)cc2)CCC1 + CCCCCCCCCCCC1=C(O)C(=O)C=C(O)C1=O [Embelin] (first compound 0.4 µM, partner dose 1.2 µM)	60.2
NC(=O)c1ccc(N(C(N)=O)c2c(F)cccc2F)nc1-c1ccc(F)cc1F + CC1(C)NC(=O)N(c2ccc([N+](=O)[O-])c(C(F)(F)F)c2)C1=O [nilutamide] (first compound 0.4 µM, partner dose 1 µM)	291
COc1ccc(C2=N[C@@H](c3ccc(Cl)cc3)[C@@H](c3ccc(Cl)cc3)N2C(=O)N2CCNC(=O)C2)c(OC(C)C)c1 [Nutlin-3] + Cn1cncc1[C@@](N)(c1ccc(Cl)cc1)c1ccc2c(c1)c(-c1cccc(Cl)c1)cc(=O)n2C [tipifarnib] (first compound 0.1 µM, partner dose 0.01 µM)	50.7
CN(c1ncccc1CNc1nc(Nc2ccc3c(c2)CC(=O)N3)ncc1C(F)(F)F)S(C)(=O)=O + Cc1cc([N+](=O)[O-])ccc1NS(=O)(=O)c1cc(Cl)ccc1Cl [FH535] (first compound 0.08 µM, partner dose 1 µM)	57.5
CC(=O)O[C@@]12CO[C@@H]1C[C@H](O)[C@@]1(C)C(=O)[C@H](O)C3=C(C)[C@@H](OC(=O)[C@H](O)[C@@H](NC(=O)OC(C)(C)C)c4ccccc4)C[C@@](O)([C@@H](OC(=O)c4ccccc4)[C@H]21)C3(C)C [Docetaxel] + N#Cc1c(O)c2c(-c3ccc(-c4ccccc4O)cc3)csc2[nH]c1=O [A769662] (first compound 0.0001 µM, partner dose 2 µM)	707
CC(=O)O[C@@]12CO[C@@H]1C[C@H](O)[C@@]1(C)C(=O)[C@H](O)C3=C(C)[C@@H](OC(=O)[C@H](O)[C@@H](NC(=O)OC(C)(C)C)c4ccccc4)C[C@@](O)([C@@H](OC(=O)c4ccccc4)[C@H]21)C3(C)C [Docetaxel] + COc1ccc2c(c1)CCC1C2CCC2(C)C(NCCCCCCN3C(=O)C=CC3=O)CCC12 [U73122] (first compound 0.0001 µM, partner dose 0.4 µM)	398
CN(c1ncccc1CNc1nc(Nc2ccc3c(c2)CC(=O)N3)ncc1C(F)(F)F)S(C)(=O)=O + COc1cc(N2CCC(N3CCN(C)CC3)CC2)ccc1Nc1ncc(Cl)c(Nc2ccccc2S(=O)(=O)C(C)C)n1 [NVP-TAE684] (first compound 0.08 µM, partner dose 0.08 µM)	225
NC(=O)c1ccc(N(C(N)=O)c2c(F)cccc2F)nc1-c1ccc(F)cc1F + O=C(O)c1ccc(-c2c[nH]c3ncc(-c4ccccc4)cc23)cc1C1CCCC1 [GSK650394] (first compound 0.4 µM, partner dose 0.16 µM)	49.5
C[C@@H](N)c1ccc(C(=O)Nc2ccnc3[nH]ccc23)cc1 + Cc1cc(N2CCOCC2)cc2[nH]c(-c3c(NC[C@@H](O)c4cccc(Cl)c4)cc[nH]c3=O)nc12 [BMS536924] (first compound 0.4 µM, partner dose 0.2 µM)	123
CC(=O)O[C@@]12CO[C@@H]1C[C@H](O)[C@@]1(C)C(=O)[C@H](O)C3=C(C)[C@@H](OC(=O)[C@H](O)[C@@H](NC(=O)OC(C)(C)C)c4ccccc4)C[C@@](O)([C@@H](OC(=O)c4ccccc4)[C@H]21)C3(C)C [Docetaxel] + COc1ccc(-c2ccc3c(N4CCOCC4)nc(N4C[C@@H](C)O[C@@H](C)C4)nc3n2)cc1CO [KU0063794] (first compound 0.0001 µM, partner dose 0.02 µM)	400
CCCCCCCCc1ccc(CCC(N)(CO)CO)cc1 [fingolimod] + Cc1cc([N+](=O)[O-])ccc1NS(=O)(=O)c1cc(Cl)ccc1Cl [FH535] (first compound 2 µM, partner dose 1 µM)	53.7
CCCCCCCCc1ccc(CCC(N)(CO)CO)cc1 [fingolimod] + Cn1cc(/C=C2\C(=O)Nc3cccnc32)c2ccccc21 [GW441756] (first compound 2 µM, partner dose 0.4 µM)	38.7
Cn1cnc2c(F)c(Nc3ccc(Br)cc3Cl)c(C(=O)NOCCO)cc21 [selumetinib] + O=C(Nc1ccccc1)c1cc([N+](=O)[O-])ccc1Cl [GW9662] (first compound 0.015 µM, partner dose 2 µM)	102

Looked up one by one from the list above:
SMILES	cleaved PARP positive nuclei fraction [%]
CN(c1ncccc1CNc1nc(Nc2ccc3c(c2)CC(=O)N3)ncc1C(F)(F)F)S(C)(=O)=O + Cc1cc([N+](=O)[O-])ccc1NS(=O)(=O)c1cc(Cl)ccc1Cl [FH535] (first compound 0.08 µM, partner dose 1 µM)	57.5
CCCCCCCCc1ccc(CCC(N)(CO)CO)cc1 [fingolimod] + Cc1cc([N+](=O)[O-])ccc1NS(=O)(=O)c1cc(Cl)ccc1Cl [FH535] (first compound 2 µM, partner dose 1 µM)	53.7

Reference: the supplement of paper PMC4604168 (melanoma cell lines)
